This list was built around the results that the source calls inconclusive (neither active nor inactive); the mix of calls is not that of the screen. Where the call is inconclusive, the potency comes from a doubtful curve fit. The source made the active and inactive calls. Calls follow the shape of the dose curve; as a rule, active = well fitted inhibition curve with a large enough effect; inconclusive = small, poorly fitted or top-dose-only effect; inactive = flat fitted curve, though single readings scatter.
molecular target: ATP-dependent Clp protease proteolytic subunit (Bacillus subtilis (strain 168)) (UniProt P80244); experiment: qHTS Assay for Activators of ClpP: Hit Validation of Inhibitors; also: nearly all actives have a fitted effect of over 70% in size; conditions: purified B. subtilis ClpP, FRET-FV substrate cleavage, 20 min; activity change, negative = inhibition: at 57.5 µM (top of the series)
Text: The Clp protease proteolytic subunit (ClpP) is the core unit of the Clp complex belonging to the peptidase family S14 that hydrolyzes protein into small peptides in the presence of ATP and magnesium. It is ubiquitously expressed and is the major protease in bacteria. […] Unlike common antibiotics that simply interfere with the essential enzyme activity, ADEP binding activates the ClpP core in the absence of the regulatory Clp-ATPases leading to uncontrolled proteolysis and eventually cell death. Activators binding to the docking site on ClpP can also block formation of the ClpXP and ClpA/C-P holoenzyme complexes interfering with the normal biological functions of ClpP and thus have the potential to become new anti-microbials. To identify activators of ClpP, a FRET based quenching reversal assay was developed using a purified B. subtilis ClpP and a decapeptide substrate (FRET-FV). The FRET-FV is tagged with a fluorescent molecule amino benzoic acid (donor) at the N-terminus and a nitrotyrosine quencher (acceptor) at the C-terminus. FRET-FV cleaves upon activation of ClpP with ADEP treatement and reverses the quenching effect of the nitrotyrosine causing an increase in fluorescence emission signal at 430nm. This assay was used to screen the Molecular Libraries Small Molecule Repository (MLSMR). NIH Molecular Libraries Probe Production Centers Network [MLPCN] NIH Chemical Genomics Center [NCGC] MLPCN Grant: MH095569 Assay Submitter (PI): Michael Maurizi, National Cancer Institute
Two and a half microL/well of purified enzyme solution (final concentrations 10 microg/mL B. subtilis ClpP in 100 mM Tris/HCl pH8, 100 mM KCl, 0.05% low protease BSA, 2.5% glycerol, 0.01% Tween-20 buffer) was dispensed into 1536-well assay plates (Greiner, black solid, medium-binding plates) with Aurora Discovery BioRAPTR Flying Reagent Dispenser (FRD, Beckton-Dickenson). Compound solution (23 nL) was transferred to the assay plate using Kalypsys pin tool equipped with a 1536-pin tool. One and a half microL/well substrate solution (final concentrations 3 microM FRET-FV substrate in 100 mM Tris/HCl pH8, 100 mM KCl, 0.05% low protease BSA, 2.5% glycerol, 0.01% Tween-20 buffer) was then added for a total of 4 microL final reaction volume. FRET signals at time 0 and after 20 min room temperature incubation were obtained using the PerkinElmer Envision plate reader with 320nm excitation and 430nm emission filters. Delta FRET value (Time 20 - Time 0) was calculated and normalized to the delta FRET value of positive control ADEP (5.8 microM final concentration) and negative control DMSO and no enzyme wells.
% is scaled to controls: 0 for no effect and ±100 for the full control effect.

The chains behind the UniProt entries cited, without tags or fusion partners.
UniProt P80244, whole entry, looked up: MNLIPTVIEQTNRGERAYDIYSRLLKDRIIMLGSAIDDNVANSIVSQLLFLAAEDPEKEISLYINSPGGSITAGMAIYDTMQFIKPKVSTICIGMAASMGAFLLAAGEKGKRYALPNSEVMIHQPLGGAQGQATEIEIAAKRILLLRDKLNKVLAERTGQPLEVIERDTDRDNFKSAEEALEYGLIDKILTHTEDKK

Q: For `O=C(Nc1ccc(F)cc1)c1sc2cc(C(F)(F)F)cnc2c1-c1cccs1`, which Potency is on record?
A: The Potency was “inactive”.

Q: `COc1ccc(NC(=O)c2oc3ccccc3c2NC(=O)c2ccco2)c(OC)c1` was tested. Which Potency did it give?
A: Its Potency is inconclusive: 34.3 µM [inhibitor, single point].

Q: How did the Potency turn out when `Cc1cc(Cl)ccc1Oc1nc(-c2ccc(F)cc2)ccc1C#N` was run?
A: Its Potency is inconclusive: 43.2 µM [inhibitor, single point].

Q: How did the Potency turn out when `O=S(=O)(Nc1cccc(-c2cn3cccnc3n2)c1)c1ccc(F)cc1` was run?
A: The Potency was active: 24.3 µM.

Q: Which Potency does the source give for `Fc1ccc(-c2cnc(-c3cccs3)o2)cc1` here?
A: The Potency was active: 5.44 µM.

Q: For `COc1ccc(Br)cc1CNC(=O)c1cnc2sc(N3CCCCCC3)nn2c1=O`, which Potency is on record?
A: The Potency was “inactive”.

Q: `CCOC(=O)c1c(NC(=O)c2ccc(S(=O)(=O)N3CCC(C)CC3)cc2)sc2c1CCN(C)C2` was tested. Which Potency did it give?
A: The Potency was inconclusive: 27.3 µM [inhibitor, single point].

Q: For `CN(c1ccccc1C(=O)NC1CC2CCC1C2)S(=O)(=O)c1ccccc1` (stereo not given), which Potency is on record?
A: The Potency was “inactive”.

Q: How did the Potency turn out when `c1nc2n(n1)C1=C(CCCC1)C1(CCCCC1)N2` was run?
A: The Potency was “inactive”.

Q: Which Potency does the source give for `COc1ccc(NC2=CC(c3ccc(F)cc3)N(c3ccc(OC)cc3)C2=O)cc1` (stereo not given) here?
A: Its Potency is inconclusive: 21.7 µM [inhibitor, partial curve].

Q: For `Fc1ccc2nc(Nc3nc4c(F)cc(F)cc4s3)sc2c1`, which Potency is on record?
A: The Potency was inconclusive: 3.85 µM [inhibitor, full curve].

Q: For `COc1ccccc1NC(=O)c1sc2nc(N3CCOCC3)c3c(c2c1N)CCCC3`, which Potency is on record?
A: The Potency was inconclusive: 4.85 µM [inhibitor, partial curve].

Q: Which Potency does the source give for `Cc1cc(=O)oc2cc(OCc3cc4c(cc3Cl)OCO4)ccc12` here?
A: The Potency was inconclusive: 24.3 µM [inhibitor, partial curve].

Q: Which Potency does the source give for `COc1ccc(S(=O)(=O)N2CCCC2C(=O)Nc2nc3c(s2)CCCC3)cc1` (stereo not given) here?
A: Its Potency is “inactive”.

Q: With `CCOc1ccc(NC(=O)c2cc3c(-c4ccccc4F)nn(C)c3s2)cc1` as the compound, how does the Potency read?
A: The Potency was inconclusive: 30.6 µM [inhibitor, single point].

Q: How did the Potency turn out when `Oc1ccc(/C=C/c2ccc(/C=C/c3ccc(O)cc3)c(Br)c2)cc1` was run?
A: The Potency was “inactive”.

Q: For `CC1CN(C(=O)Nc2ccc3c(c2)OCCO3)CC(C)O1` (stereo not given), which Potency is on record?
A: Its Potency is “inactive”.

Q: For `COc1ccccc1C(=O)Nc1ccc(-c2nc3ccccc3s2)c(C)c1`, which Potency is on record?
A: The Potency was “inactive”.

Q: `COc1ccc2nc3n(c(=O)c2c1)-c1cc2ccccc2cc1C(=O)NC3Cc1ccccc1` (stereo not given) was tested. Which Potency did it give?
A: The Potency was inconclusive: 24.3 µM [inhibitor, partial curve].

Q: With `CC(=O)Nc1ccc(NC(=O)c2ccc(N(C)S(=O)(=O)c3ccc(C)cc3)cc2)cc1` as the compound, how does the Potency read?
A: Its Potency is inconclusive: 21.7 µM [inhibitor, partial curve].

Q: How did the Potency turn out when `CCOc1ccc(-c2nnc(-c3ccco3)o2)cc1` was run?
A: The Potency was active: 21.7 µM.

Q: Which Potency does the source give for `O=C(Nc1ccc2ccccc2c1)C(c1ccccc1)n1c(=O)c(-c2cc3ccccc3[nH]2)nc2ccccc21` (stereo not given) here?
A: The Potency was “inactive”.

Q: `O=C1Nc2ccc(F)cc2C12Nc1ccccc1-c1nnc(SCc3ccccc3F)nc1O2` (stereo not given) was tested. Which Potency did it give?
A: Its Potency is “inactive”.

Q: How did the Potency turn out when `COc1ccc(Nc2cc(C(=O)NC3CCCC3)c3ccccc3n2)cc1` was run?
A: Its Potency is “inactive”.

Q: With `COc1ccc(S(=O)(=O)N2CCOCC2)cc1NC(=O)c1ccccc1-c1ccc(C(F)(F)F)cc1` as the compound, how does the Potency read?
A: The Potency was inconclusive: 21.7 µM [inhibitor, partial curve].

Q: How did the Potency turn out when `Cc1cc(=O)oc2cc(OCC(=O)OCC(=O)Nc3ccccc3C(C)C)ccc12` was run?
A: The Potency was inconclusive: 30.6 µM [inhibitor, single point].

Q: For `COc1ccccc1NC(=O)Cn1c2ccccc2c2nc3n(c(=O)c21)CCS3`, which Potency is on record?
A: Its Potency is inconclusive: 21.7 µM [inhibitor, partial curve].

Q: With `CCOC(=O)N1CCN(S(=O)(=O)c2ccc(C(=O)Nc3nc4ccccc4s3)cc2)CC1` as the compound, how does the Potency read?
A: Its Potency is inconclusive: 27.3 µM [inhibitor, single point].

Q: Which Potency does the source give for `COc1cc2c(cc1NC(=O)C(C)N1CCN(S(=O)(=O)c3ccc(C)c(C)c3)CC1)oc1ccccc12` (stereo not given) here?
A: Its Potency is inconclusive: 19.3 µM [inhibitor, partial curve].

Q: How did the Potency turn out when `Cc1ccccc1N(CC(=O)Nc1ccc(S(=O)(=O)N2CCOCC2)cc1)S(C)(=O)=O` was run?
A: Its Potency is “inactive”.

Q: For `O=c1oc2ccccc2cc1-c1nnc(-c2cccc(Br)c2)o1`, which Potency is on record?
A: The Potency was inconclusive: 1.09 µM [inhibitor, full curve].

Q: How did the Potency turn out when `COc1cc(OC)cc(-c2nnc(N(C)C(=O)c3ccncc3)s2)c1` was run?
A: The Potency was inconclusive: 43.2 µM [inhibitor, single point].

Q: How did the Potency turn out when `O=C(Nc1cccc(-c2nc3ccccc3o2)c1)c1ccc(-c2ccc(Br)cc2)o1` was run?
A: Its Potency is “inactive”.

Q: With `O=C(NC1CCCCC1)C(c1cccc2ccccc12)n1c(=O)c(-c2cc3ccccc3[nH]2)nc2ccccc21` (stereo not given) as the compound, how does the Potency read?
A: Its Potency is “inactive”.

Q: How did the Potency turn out when `COc1ccc(-c2nc3ccccc3s2)cc1NC(=O)c1ccc(F)cc1` was run?
A: The Potency was active: 21.7 µM.

Q: For `O=C(O)C1=CC(=C(c2ccc(O)c(C(=O)O)c2)c2ccc(O)c(C(=O)O)c2)C=CC1=O`, which Potency is on record?
A: The Potency was inconclusive: 21.7 µM [inhibitor, partial curve].

Q: For `Cc1ccc2nc(-c3ccco3)c(Nc3ccccc3)n2c1`, which Potency is on record?
A: The Potency was inconclusive: 2.73 µM [inhibitor, full curve].

Q: `COc1cccc(-c2nc(-c3ccc(NC(=O)c4cccs4)cc3)no2)c1` was tested. Which Potency did it give?
A: The Potency was inconclusive: 12.2 µM [inhibitor, full curve].

Q: Which Potency does the source give for `c1cncc(C2Nc3ccccc3-c3nc4ccccc4n32)c1` (stereo not given) here?
A: Its Potency is active: 27.3 µM.

Q: With `CCOc1cc(C2NN=C(c3ccccc3)S2)ccc1OCc1ccccc1Cl` (stereo not given) as the compound, how does the activity change, negative = inhibition read?
A: The activity change, negative = inhibition was inconclusive: -17.8% [inhibitor].
